# Test results taken from the supplement of paper PMC9135407.
# Where “and” joins values, the source holds several entries; their conditions need not be identical. Equal entries are not always repeated. Structures can show the parent of a compound that is named as a salt. ± gives the standard deviation of the averaged measurements. The list shows a part of the results. Part of the spread comes from offsets between plates or batches.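 Primary human stellate myofibroblasts activated in culture; inactivation shown by regained lipid droplets. Readout: fraction of Hoechst-counted cells exceeding a per-plate Bodipy threshold, duplicate wells, each plate with DMSO negative and nortriptyline positive controls. Hits: control-normalized score beyond the plate's top-tenth-percentile nortriptyline wells, or among its three best wells. Final well concentrations unstated.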
# Tested on: primary human hepatic stellate cells (donor 1)
# Experiment: percent Bodipy-positive cells; higher = more lipid droplet accumulation
# Conditions: 48 h
# [1] = library stock concentration: 10 mM
# [2] = library stock concentration: 3.33 mM
# [3] = library stock concentration: 1 mM
# [4] = library stock concentration: 400 uM
# [5] = library stock concentration: 2 mM
# [6] = library stock concentration: 5.1 mM
smiles,measurement,setting,value
CCN(CC)CCOc1ccc(Cc2ccccc2)cc1.O=C(O)/C=C/C(=O)O [DPPE fumarate],percent Bodipy-positive cells,[1],56.5 ± 3.8%
COc1ccc(-c2cnc3c(-c4ccsc4)cnn3c2)cc1 [VEGF Receptor 2 Kinase Inhibitor IV],percent Bodipy-positive cells,[2],13.9 ± 3.6%
C#CC[C@H](c1nc2cc(Cl)ccc2c(=O)n1Nc1ccccc1)N(CCCN)C(=O)c1cccc(Cl)c1F,percent Bodipy-positive cells,[2],99.2 ± 1.2%
same,percent Bodipy-positive cells,[1],98.3 ± 2.4%
Cc1c(N(C)CS(=O)(=O)O)c(=O)n(-c2ccccc2)n1C [Dipyrone],percent Bodipy-positive cells,,10.5 ± 6.5%
same,percent Bodipy-positive cells,library stock concentration: 6 mM,9.82 ± 2.3%
same,percent Bodipy-positive cells,[1],26.4 ± 10%
CCCCCC/C=C\CCCCCCCC(=O)OCC [Palmitoleic Acid ethyl ester],percent Bodipy-positive cells,[3],10.6 ± 3.6%
CN(C)[C@@H]1C(O)=C(C(=O)NCN2CCCC2)C(=O)[C@@]2(O)C(O)=C3C(=O)c4c(O)cccc4[C@@](C)(O)[C@H]3C[C@@H]12 [Rolitetracycline],percent Bodipy-positive cells,,7.84 ± 1.4%
CN(C)[C@@H]1C(O)=C(C(=O)NCN2CCCC2)C(=O)[C@@]2(O)C(O)=C3C(=O)c4c(O)cccc4[C@@](C)(O)[C@H]3C[C@@H]12,percent Bodipy-positive cells,[1],16.8 ± 10%
C[C@@H]1CCN(C(=O)CC#N)C[C@@H]1N(C)c1ncnc2[nH]ccc12,percent Bodipy-positive cells,[4],8.95 ± 2.2%
same,percent Bodipy-positive cells,[5],24.8 ± 14%
same,percent Bodipy-positive cells,[2],6.43% and 7.49%
same,percent Bodipy-positive cells,[1],21.7% and 8.79% and 11.9%
CC(=O)OCC(CCn1cnc2cnc(N)nc21)COC(C)=O [Famciclovir],percent Bodipy-positive cells,[2],14.2 ± 2%
same,percent Bodipy-positive cells,library stock concentration: 6.2 mM,7.66% and 9.36%
CC(=O)OCC(CCn1cnc2cnc(N)nc21)COC(C)=O,percent Bodipy-positive cells,[1],7.68 ± 0.51%
COc1ccc([C@@H]2CC(=O)c3c(O)cc(O[C@@H]4O[C@H](CO)[C@@H](O)[C@H](O)[C@H]4O[C@@H]4O[C@@H](C)[C@H](O)[C@@H](O)[C@H]4O)cc3O2)cc1O [Neohesperidin],percent Bodipy-positive cells,[2],10 ± 2.9%
same,percent Bodipy-positive cells,[1],16.2 ± 0.69%
NNc1nncc2ccccc12 [Hydralazine hydrochloride],percent Bodipy-positive cells,,22.8 ± 4.7%
C=CC(=O)Nc1cccc(Oc2nc(Nc3ccc(N4CCN(C)CC4)cc3OC)ncc2Cl)c1,percent Bodipy-positive cells,library stock concentration: 80 uM,12.2 ± 2.6%
same,percent Bodipy-positive cells,[4],20.9 ± 9.8%
same,percent Bodipy-positive cells,[5],33.5 ± 4.6%
same,percent Bodipy-positive cells,[2],56.1 ± 10%
O=C(/C=C/c1ccc(O)c(O)c1)OCCc1ccccc1 [Caffeic Acid phenylethyl ester],percent Bodipy-positive cells,[3],10.5 ± 3%
O=C(/C=C/c1ccc(O)c(O)c1)OCCc1ccccc1 [Caffeic Acid Phenethyl Ester],percent Bodipy-positive cells,[2],48.1 ± 1.4%
same,percent Bodipy-positive cells,[1],75.6 ± 11%
Oc1cccc(-c2nc(N3CCOCC3)c3oc4ncccc4c3n2)c1,percent Bodipy-positive cells,[1],87.8 ± 1.9%
NCC(O)CC(=O)O (centres undefined) [Aminohydroxybutyric acid],percent Bodipy-positive cells,[1],27.8 ± 8.6%
CC(C)CC(CC(=O)NO)C(=O)N[C@@H](Cc1ccc2ccccc2c1)C(=O)N[C@@H](C)C(=O)NCCN (some centres undefined),percent Bodipy-positive cells,[2],36.5 ± 9.1%
same,percent Bodipy-positive cells,[1],52.2 ± 7.8%
O=C1OC2(c3ccc(O)cc3Oc3cc(OS(=O)(=O)c4c(F)c(F)c(F)c(F)c4F)ccc32)c2ccccc21 (centres undefined) [Pentafluorobenzenesulfonyl fluorescein],percent Bodipy-positive cells,[3],9.71 ± 2.9%
C[C@H](CCC(=O)O)[C@H]1CC[C@H]2[C@@H]3[C@H](O)C[C@@H]4C[C@H](O)CC[C@]4(C)[C@H]3CC[C@]12C [Chenodeoxycholic Acid],percent Bodipy-positive cells,[2],8.36 ± 2.9%
same,percent Bodipy-positive cells,[1],12.6 ± 6%
C[C@H](CCC(=O)O)[C@H]1CC[C@H]2[C@@H]3[C@H](O)C[C@@H]4C[C@H](O)CC[C@]4(C)[C@H]3CC[C@]12C [Chenodiol],percent Bodipy-positive cells,,25 ± 0.94%
same,percent Bodipy-positive cells,[6],11.9 ± 2.2%
same,percent Bodipy-positive cells,[1],9.92 ± 0.61%
COc1ccc2c(c1)CCC1C2CC[C@@]2(C)C1CC[C@@H]2NCCCCCCN1C(=O)CCC1=O (some centres undefined),percent Bodipy-positive cells,[1],89.2 ± 6.8%
C[N+](C)(C)CC[N+]1(C)Cc2c(Cl)c(Cl)c(Cl)c(Cl)c2C1 [Chlorisondamine diiodide],percent Bodipy-positive cells,[1],9.93 ± 3.2%
CN1CCN(c2c(F)cc3c(=O)c(C(=O)O)cn(CCF)c3c2F)CC1 [Fleroxacin],percent Bodipy-positive cells,library stock concentration: 5.4 mM,15.4 ± 7.9%
COc1ccc(CCN(C)CCCC(C#N)(c2cc(OC)c(OC)c(OC)c2)C(C)C)cc1OC (centres undefined),percent Bodipy-positive cells,[1],73.3 ± 4%
Nc1cc(C(Cl)=C(Cl)Cl)c(S(N)(=O)=O)cc1S(N)(=O)=O [Clorsulon],percent Bodipy-positive cells,,33.6 ± 7.8%
same,percent Bodipy-positive cells,[2],13.4 ± 2.7%
same,percent Bodipy-positive cells,library stock concentration: 5.3 mM,12.6 ± 7.7%
same,percent Bodipy-positive cells,[1],19.8 ± 9.9%
Cc1ccccc1CN1C2=NCCN2C(=O)C2=C1CCN(Cc1ccccc1)C2,percent Bodipy-positive cells,[2],31.634 ± 0.0092%
same,percent Bodipy-positive cells,[1],44.1 ± 13%
Cc1ccc2c(c1)C(=O)C1(O)CCN(c3ccccc3)C1=N2 (centres undefined) [Blebbistatin],percent Bodipy-positive cells,library stock concentration: 17.1 mM,21.5 ± 1.4%
Cc1ccc2c(c1)C(=O)C1(O)CCN(c3ccccc3)C1=N2 (centres undefined),percent Bodipy-positive cells,[3],18.8 ± 6.1%
same,percent Bodipy-positive cells,[1],6.81 ± 2.7%
CC[C@H](C)C(=O)O[C@H]1CCC=C2C=C[C@H](C)[C@H](CC[C@@H]3C[C@@H](O)CC(=O)O3)[C@H]21 [mevastatin],percent Bodipy-positive cells,[1],43.4 ± 5%
CC[C@H](C)C(=O)O[C@H]1CCC=C2C=C[C@H](C)[C@H](CC[C@@H]3C[C@@H](O)CC(=O)O3)[C@H]21 [Mevastatin],percent Bodipy-positive cells,[2],20.5 ± 1.3%
same,percent Bodipy-positive cells,[6],29.2 ± 15%
O=C1NC(=O)C(c2c[nH]c3ccccc23)=C1c1c[nH]c2ccccc12 [Bisindolylmaleimide IV],percent Bodipy-positive cells,[3],5.75 ± 1.6%
same,percent Bodipy-positive cells,[2],7.11 ± 0.35%
COc1c2occc2c(OC)c2c(=O)cc(C)oc12 [Khellin],percent Bodipy-positive cells,,32 ± 15%
same,percent Bodipy-positive cells,[1],55.6 ± 5.6%
C1CNCCN1 [Piperazine],percent Bodipy-positive cells,[1],10.1 ± 0.65%
same,percent Bodipy-positive cells,library stock concentration: 23.2 mM,9.93 ± 0.19%
CCCCC[C@H](O)/C=C/[C@H]1CC[C@H](O)[C@@H]1CCCCCCC(=O)O [11-deoxy Prostaglandin F1.alpha.],percent Bodipy-positive cells,[3],16.5 ± 1.3%
CCCCC[C@H](O)/C=C/[C@@H]1[C@@H](CCCCCCCO)[C@@H](O)C[C@H]1O [Prostaglandin F1.alpha. Alcohol],percent Bodipy-positive cells,[3],12.7 ± 4.9%
Cc1nc(N)sc1-c1ccnc(Nc2ccc(N3CCOCC3)cc2)n1,percent Bodipy-positive cells,[1],96.61 ± 0.73%
O=c1oc2ccccc2c(O)c1Cc1c(O)c2ccccc2oc1=O [Dicumarol],percent Bodipy-positive cells,,8.36 ± 2.1%
same,percent Bodipy-positive cells,library stock concentration: 5.9 mM,1.58 ± 0.88%
same,percent Bodipy-positive cells,[1],8.8 ± 4%
O=c1oc2ccccc2c(O)c1Cc1c(O)c2ccccc2oc1=O [Dicoumarol],percent Bodipy-positive cells,[2],5.58 ± 1.4%
same,percent Bodipy-positive cells,[1],26.2 ± 4.2%
CS(=O)(=O)N1CCc2c(-c3cnc(N)nc3)nc(N3CCOCC3)nc21,percent Bodipy-positive cells,[2],4.82 ± 2.6%
same,percent Bodipy-positive cells,[1],34.2 ± 31%
CC(=O)[C@]1(O)Cc2c(O)c3c(c(O)c2[C@@H](O[C@H]2C[C@H](N)[C@H](O)[C@H](C)O2)C1)C(=O)c1ccccc1C3=O [Idarubicin],percent Bodipy-positive cells,library stock concentration: 4 mM,100%
same,percent Bodipy-positive cells,[1],100%
CC(=O)[C@]1(O)Cc2c(O)c3c(c(O)c2[C@@H](O[C@H]2C[C@H](N)[C@H](O)[C@H](C)O2)C1)C(=O)c1ccccc1C3=O,percent Bodipy-positive cells,[1],100%
CC(=O)[C@]1(O)Cc2c(O)c3c(c(O)c2[C@@H](O[C@H]2C[C@H](N)[C@H](O)[C@H](C)O2)C1)C(=O)c1ccccc1C3=O [Idarubicin HCl],percent Bodipy-positive cells,[2],100%
same,percent Bodipy-positive cells,[1],100%

# Three records picked at random from the list so far, as already listed:
smiles,measurement,setting,value
C[N+](C)(C)CC[N+]1(C)Cc2c(Cl)c(Cl)c(Cl)c(Cl)c2C1 [Chlorisondamine diiodide],percent Bodipy-positive cells,[1],9.93 ± 3.2%
C#CC[C@H](c1nc2cc(Cl)ccc2c(=O)n1Nc1ccccc1)N(CCCN)C(=O)c1cccc(Cl)c1F,percent Bodipy-positive cells,[2],99.2 ± 1.2%
C=CC(=O)Nc1cccc(Oc2nc(Nc3ccc(N4CCN(C)CC4)cc3OC)ncc2Cl)c1,percent Bodipy-positive cells,[2],56.1 ± 10%
